The values below come from publication PMC11344848, “Proximity-driven site-specific cyclization of phage-displayed peptides” (Nature Communications, 2024).

No constants are given. Whether binding was seen depends on the method and setting.

For this assay, the target named is streptavidin (UniProt P22629). Kind of assay: ELISA; phage ELISA: streptavidin-coated 96 well plate, no biotinylated antigen; phage blocked in 3% (w/v) mPBS, 1 h at room temperature; bound phage detected with anti-M13-HRP; only the target purified. (In general: In an ELISA, binding on a coated surface is turned into a signal by an enzyme label.)

With CGGSGGC (CCA-cyclized (linker CCA between the two cysteines)) [CCA-cyclized negative control phage construct (CGGSGGC)], the binding entry is reported as “no binding”.
